Source: PubChem BioAssay (Tox21)
Values joined by “and” are separate entries in the source; they are usually repeats but may differ in a detail not shown here. Identical values can stand only once. Only results without a clear call are listed here; the source files them as inconclusive. Unless noted, the call rests on the fitted dose curve.

Chains of the proteins cited; added tags and fusions are not shown.
UniProt P22303, whole entry: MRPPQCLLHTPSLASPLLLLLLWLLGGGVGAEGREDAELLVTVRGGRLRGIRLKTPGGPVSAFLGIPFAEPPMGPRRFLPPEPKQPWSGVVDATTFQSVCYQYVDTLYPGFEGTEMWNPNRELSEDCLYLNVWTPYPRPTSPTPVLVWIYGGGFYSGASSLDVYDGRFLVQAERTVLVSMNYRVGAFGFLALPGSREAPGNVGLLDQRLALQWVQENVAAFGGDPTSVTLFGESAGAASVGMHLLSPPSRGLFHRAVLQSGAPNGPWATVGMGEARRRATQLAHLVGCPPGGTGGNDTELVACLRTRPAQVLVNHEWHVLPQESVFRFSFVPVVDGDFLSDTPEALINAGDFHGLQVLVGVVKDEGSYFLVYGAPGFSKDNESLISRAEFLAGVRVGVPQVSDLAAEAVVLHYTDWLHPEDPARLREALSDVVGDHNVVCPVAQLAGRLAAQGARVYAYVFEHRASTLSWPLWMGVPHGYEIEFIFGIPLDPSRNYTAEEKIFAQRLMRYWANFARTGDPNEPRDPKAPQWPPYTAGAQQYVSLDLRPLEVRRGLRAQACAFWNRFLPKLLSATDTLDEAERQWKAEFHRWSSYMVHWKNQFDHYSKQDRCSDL
UniProt P06401, whole entry: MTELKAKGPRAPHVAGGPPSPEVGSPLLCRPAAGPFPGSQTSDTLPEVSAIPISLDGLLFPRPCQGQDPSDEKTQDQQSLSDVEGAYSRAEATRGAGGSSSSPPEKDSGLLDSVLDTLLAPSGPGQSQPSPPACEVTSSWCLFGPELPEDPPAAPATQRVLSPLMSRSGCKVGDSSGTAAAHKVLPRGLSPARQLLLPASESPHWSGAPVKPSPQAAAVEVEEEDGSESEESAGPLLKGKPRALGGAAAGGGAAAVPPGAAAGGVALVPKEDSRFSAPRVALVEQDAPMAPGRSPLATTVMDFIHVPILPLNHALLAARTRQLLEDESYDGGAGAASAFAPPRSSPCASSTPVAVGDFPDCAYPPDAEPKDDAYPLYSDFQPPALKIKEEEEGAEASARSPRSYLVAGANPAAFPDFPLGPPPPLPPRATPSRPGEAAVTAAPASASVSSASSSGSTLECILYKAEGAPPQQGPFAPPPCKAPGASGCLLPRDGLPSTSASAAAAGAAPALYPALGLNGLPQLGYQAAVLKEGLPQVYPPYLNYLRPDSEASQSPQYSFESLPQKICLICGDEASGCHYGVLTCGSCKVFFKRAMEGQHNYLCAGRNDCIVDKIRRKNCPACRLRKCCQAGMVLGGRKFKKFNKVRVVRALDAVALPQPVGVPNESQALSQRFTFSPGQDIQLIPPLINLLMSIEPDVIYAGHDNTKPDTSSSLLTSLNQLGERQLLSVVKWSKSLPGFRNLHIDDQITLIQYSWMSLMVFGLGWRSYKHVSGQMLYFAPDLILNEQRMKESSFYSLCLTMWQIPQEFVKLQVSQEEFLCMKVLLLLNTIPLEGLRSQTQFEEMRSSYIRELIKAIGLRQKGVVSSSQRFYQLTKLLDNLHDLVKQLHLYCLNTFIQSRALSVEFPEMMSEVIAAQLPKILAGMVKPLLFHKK
UniProt P04150, whole entry: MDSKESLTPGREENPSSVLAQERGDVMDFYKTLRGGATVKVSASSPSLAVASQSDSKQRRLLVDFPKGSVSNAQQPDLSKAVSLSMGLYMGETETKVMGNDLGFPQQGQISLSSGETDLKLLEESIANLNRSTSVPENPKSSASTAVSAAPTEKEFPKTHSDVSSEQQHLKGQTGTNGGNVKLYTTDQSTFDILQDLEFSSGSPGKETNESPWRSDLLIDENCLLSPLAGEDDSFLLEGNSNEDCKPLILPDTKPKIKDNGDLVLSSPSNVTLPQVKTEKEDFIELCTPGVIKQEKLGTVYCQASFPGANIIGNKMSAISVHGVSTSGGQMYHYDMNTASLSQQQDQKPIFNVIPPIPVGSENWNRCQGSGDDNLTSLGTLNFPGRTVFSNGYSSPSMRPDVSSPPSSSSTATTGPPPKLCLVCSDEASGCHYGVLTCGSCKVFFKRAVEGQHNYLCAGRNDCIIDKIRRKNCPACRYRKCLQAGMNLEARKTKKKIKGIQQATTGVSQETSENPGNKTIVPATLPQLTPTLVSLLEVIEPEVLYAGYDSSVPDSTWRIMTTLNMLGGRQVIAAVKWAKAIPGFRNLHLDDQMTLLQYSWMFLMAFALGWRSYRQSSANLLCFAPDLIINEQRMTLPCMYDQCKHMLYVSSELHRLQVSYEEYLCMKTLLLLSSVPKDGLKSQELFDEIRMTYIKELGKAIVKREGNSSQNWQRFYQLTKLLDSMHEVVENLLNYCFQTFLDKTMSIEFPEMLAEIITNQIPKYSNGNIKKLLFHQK
UniProt P35869, whole entry: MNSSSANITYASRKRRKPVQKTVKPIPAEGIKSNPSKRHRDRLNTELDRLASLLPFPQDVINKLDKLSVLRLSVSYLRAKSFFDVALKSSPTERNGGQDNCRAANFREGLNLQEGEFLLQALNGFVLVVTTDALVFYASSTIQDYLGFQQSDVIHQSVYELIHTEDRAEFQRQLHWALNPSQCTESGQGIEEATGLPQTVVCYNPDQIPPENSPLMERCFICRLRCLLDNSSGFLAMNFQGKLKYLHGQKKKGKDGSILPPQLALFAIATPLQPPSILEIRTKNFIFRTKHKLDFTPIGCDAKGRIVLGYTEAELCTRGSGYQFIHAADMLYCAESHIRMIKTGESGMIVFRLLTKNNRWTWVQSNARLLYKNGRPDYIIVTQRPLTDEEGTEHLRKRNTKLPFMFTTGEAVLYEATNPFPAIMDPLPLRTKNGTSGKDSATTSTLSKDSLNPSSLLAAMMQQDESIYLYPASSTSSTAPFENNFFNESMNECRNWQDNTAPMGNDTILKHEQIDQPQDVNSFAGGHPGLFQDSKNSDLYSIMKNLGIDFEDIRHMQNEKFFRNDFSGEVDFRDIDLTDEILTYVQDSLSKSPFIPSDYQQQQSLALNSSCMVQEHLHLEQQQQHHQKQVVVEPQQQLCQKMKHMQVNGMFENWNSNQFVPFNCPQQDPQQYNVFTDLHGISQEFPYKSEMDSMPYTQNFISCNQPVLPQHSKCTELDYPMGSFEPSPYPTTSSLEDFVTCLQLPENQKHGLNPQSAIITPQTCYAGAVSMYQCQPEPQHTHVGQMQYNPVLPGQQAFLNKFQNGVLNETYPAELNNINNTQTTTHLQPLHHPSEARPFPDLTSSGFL
UniProt Q96RI1, whole entry: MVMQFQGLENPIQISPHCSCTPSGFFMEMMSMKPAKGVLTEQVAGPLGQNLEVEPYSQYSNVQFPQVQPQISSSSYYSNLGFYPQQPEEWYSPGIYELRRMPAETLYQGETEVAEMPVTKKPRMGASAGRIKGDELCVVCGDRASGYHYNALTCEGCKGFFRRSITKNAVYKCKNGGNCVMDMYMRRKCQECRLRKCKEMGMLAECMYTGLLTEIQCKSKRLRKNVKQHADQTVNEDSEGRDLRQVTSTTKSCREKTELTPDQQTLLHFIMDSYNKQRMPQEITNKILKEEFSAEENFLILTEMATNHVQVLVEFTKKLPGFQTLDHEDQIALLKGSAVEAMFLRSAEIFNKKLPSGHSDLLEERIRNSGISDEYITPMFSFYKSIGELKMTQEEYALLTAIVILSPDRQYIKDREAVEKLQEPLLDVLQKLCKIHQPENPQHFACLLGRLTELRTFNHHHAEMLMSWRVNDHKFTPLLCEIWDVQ
UniProt P11473, whole entry: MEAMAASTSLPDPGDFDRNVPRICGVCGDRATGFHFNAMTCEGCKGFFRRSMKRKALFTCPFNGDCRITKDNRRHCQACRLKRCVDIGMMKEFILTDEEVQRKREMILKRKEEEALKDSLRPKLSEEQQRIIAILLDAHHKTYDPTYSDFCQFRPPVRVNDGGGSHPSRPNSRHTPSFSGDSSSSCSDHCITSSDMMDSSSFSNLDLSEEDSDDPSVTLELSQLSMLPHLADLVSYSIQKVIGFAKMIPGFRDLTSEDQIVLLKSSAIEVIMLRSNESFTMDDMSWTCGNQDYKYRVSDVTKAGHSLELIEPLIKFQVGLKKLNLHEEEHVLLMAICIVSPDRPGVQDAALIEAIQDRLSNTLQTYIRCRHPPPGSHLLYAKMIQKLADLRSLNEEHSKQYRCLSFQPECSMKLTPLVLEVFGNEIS
UniProt P19793, whole entry: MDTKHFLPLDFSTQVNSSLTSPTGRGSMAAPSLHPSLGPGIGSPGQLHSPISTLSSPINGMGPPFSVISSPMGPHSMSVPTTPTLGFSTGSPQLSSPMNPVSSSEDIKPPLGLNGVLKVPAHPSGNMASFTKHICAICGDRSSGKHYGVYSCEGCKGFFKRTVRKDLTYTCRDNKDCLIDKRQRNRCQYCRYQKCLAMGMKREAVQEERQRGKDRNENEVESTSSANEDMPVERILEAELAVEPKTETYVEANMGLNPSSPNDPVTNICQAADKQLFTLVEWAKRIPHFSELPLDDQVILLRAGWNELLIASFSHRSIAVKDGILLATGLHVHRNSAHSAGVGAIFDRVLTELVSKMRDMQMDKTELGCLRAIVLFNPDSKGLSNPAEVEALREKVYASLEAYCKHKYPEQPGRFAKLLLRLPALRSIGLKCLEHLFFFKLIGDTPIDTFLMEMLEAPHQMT

How the values were obtained:
[1] = target: Acetylcholinesterase (Homo sapiens) (UniProt P22303); assay: Acetylcholinesterase (AChE) small molecule antagonists: fluorescence cell-based qHTS assay (AID 1347398); conditions: SH-SY5Y cells, AChE activity; further: potency means the concentration at half of the fitted maximal effect; nearly all actives have a fitted effect of over 50% in size
Outline: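 Thiocholine generated from acetylthiocholine by SH-SY5Y cell AChE is detected with Thiolite Green (Ex/Em 490/520 nm) after 40 min at room temperature, following 30 min compound pretreatment at 37 C.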

[2] = target: Acetylcholinesterase (Homo sapiens) (UniProt P22303); assay: Acetylcholinesterase (AChE) small molecule antagonists: colormetric cell-based qHTS assay (AID 1347395); conditions: SH-SY5Y cells AChE activity, colorimetric (Ellman); further: potency means the concentration at half of the fitted maximal effect; nearly all actives have a fitted effect of over 30% in size
Outline: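 Colorimetric readout: DTNB quantifies thiocholine from acetylthiocholine hydrolysed by endogenous AChE of SH-SY5Y cells (2,000/well, plated overnight). Compound pretreatment 30 min, substrate incubation 90 min, both 37 C.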

[3] = qHTS assay to identify small molecule agonists of the AP-1 signaling pathway (AID 1159526); conditions: ME-180 (cervical carcinoma) AP-1-bla reporter, beta-lactamase FRET ratio, 5 h; further: potency means the concentration at half of the fitted maximal effect
[4] = target: Progesterone receptor (Homo sapiens) (UniProt P06401); assay: qHTS assay to identify small molecule antagonists of the progesterone receptor (PR) signaling pathway (AID 1346795; active means well fitted inhibition curve with a large enough effect in the signal ratio in the repeat runs, not every such curve was filed as active; inconclusive means weak or mixed curves; the % refers to the signal ratio; further: on the % scale 0 is the no-effect control and ±100 the full control effect); conditions: PR-UAS-bla HEK293T, beta-lactamase FRET ratio, 16 h; at 92.4 µM (top of the series)
Outline: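 Antagonist mode with agonist R5020 at 1 nM final and 16 hr incubation at 37C. Reporter was beta-lactamase driven by UAS in HEK293T (PR-UAS-bla), 2% charcoal-stripped serum; signal from LiveBLAzer FRET substrate, 2 hr at room temperature.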

[5] = Caspase-3/7 induction in CHO-K1 cells by small molecules, qHTS cell viability counter screen (AID 1346979; active means well fitted curve in the direction sought with a large enough effect in the repeat runs; inconclusive means weak or mixed curves; inactive means no such curve, though single readings can be large; an effect the other way counts as inactive or inconclusive; further: potency means the concentration at half of the fitted maximal effect; nearly all actives have a fitted effect of over 35% in size); conditions: CellTiter-Fluor fluorescence, 17 h
Outline: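 Cytotoxicity counter screen: CellTiter-Fluor added to compound-treated wild-type CHO-K1 cells at 16 h (37C, 5% CO2), fluorescence measured 1 h later; same wells as caspase-3/7 measurement.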

[6] = qHTS assay for small molecule agonists of the p53 signaling pathway (AID 651631); conditions: HCT-116 p53RE-bla reporter, beta-lactamase FRET ratio, 16 h; activation: at 73.3 µM (top of the series); further: on the % scale 0 is the no-effect control and ±100 the full control effect; nearly all actives have a fitted effect of over 15% in size
Outline: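 Readout was fluorescence from the LiveBLAzer FRET substrate, applied for 2 h at room temperature after 16 h compound exposure at 37 °C. Cells were the p53RE-bla HCT-116 line, with beta-lactamase driven by p53 response elements.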

[7] = target: Glucocorticoid receptor (Homo sapiens) (UniProt P04150); assay: qHTS assay to identify small molecule antagonists of the glucocorticoid receptor (GR) signaling pathway (AID 720692; active means well fitted inhibition curve with a large enough effect in the signal ratio in the repeat runs, not every such curve was filed as active; inconclusive means weak or mixed curves, or effect the other way; inactive means no such curve, though single readings can be large or run the other way; the % refers to the signal ratio; further: potency means the concentration at half of the fitted maximal effect); conditions: GR-bla HeLa, beta-lactamase FRET ratio, dexamethasone-stimulated, 18 h
[8] = qHTS assay for identifying genotoxic compounds that show differential cytotoxicity against isogenic chicken DT40 cell lines with known DNA damage response pathways - wild type cell line (AID 743012; active means well fitted curve in the direction sought with a large enough effect in the repeat runs; inconclusive means weak or mixed curves; inactive means no such curve, though single readings can be large; an effect the other way counts as inactive or inconclusive; further: potency means the concentration at half of the fitted maximal effect; nearly all actives have a fitted effect of over 60% in size); conditions: DT40 wild type chicken cells viability, CellTiter-Glo, 40 h
Outline: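 First, wild type DT40 cells were plated at 300 per well and equilibrated about 0.5 h at 37 C/5% CO2. Next, compounds in DMSO were added and exposure lasted 40 h. Finally, CellTiter-Glo was added for 30 min at room temperature and luminescence recorded.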

[9] = qHTS assay to identify small molecule antagonists of the androgen receptor (AR) signaling pathway - cell viability counter screen (AID 743033; active means well fitted curve in the direction sought with a large enough effect in the repeat runs; inconclusive means weak or mixed curves; inactive means no such curve, though single readings can be large; an effect the other way counts as inactive or inconclusive; further: potency means the concentration at half of the fitted maximal effect; nearly all actives have a fitted effect of over 45% in size); conditions: AR-bla HEK293 viability, CellTiter-Glo luminescence, 16 h
[10] = qHTS assay to identify small molecule antagonists of the thyroid receptor (TR) signaling pathway - cell viability counter screen (AID 743064; active means well fitted curve in the direction sought with a large enough effect in the repeat runs; inconclusive means weak or mixed curves; inactive means no such curve, though single readings can be large; an effect the other way counts as inactive or inconclusive; further: potency means the concentration at half of the fitted maximal effect; nearly all actives have a fitted effect of over 50% in size); conditions: GH3.TRE-Luc viability, CellTiter-Fluor, 24 h; activity change, negative = cytotoxic: at 70.3 µM (top of the series)
Outline: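 In-well cytotoxicity read by CellTiter-Fluor (30 min, 37 C) following 23.5 h exposure of GH3 cells bearing a TRE-luciferase sensor. Compounds were added alongside 1 nM (final) T3 to drive TR transactivation.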

[11] = target: Aryl hydrocarbon receptor (Homo sapiens) (UniProt P35869); assay: qHTS assay to identify small molecule that activate the aryl hydrocarbon receptor (AhR) signaling pathway (AID 743085; active means well fitted curve in the direction sought with a large enough effect in the repeat runs; inconclusive means weak or mixed curves; inactive means no such curve, though single readings can be large; an effect the other way counts as inactive or inconclusive; further: potency means the concentration at half of the fitted maximal effect; nearly all actives have a fitted effect of over 15% in size); conditions: HepG2 AhR-luc (HG2L7.5c1), luciferase, 24 h
[12] = qHTS assay for small molecule activators of the heat shock response signaling pathway (AID 743210; active means well fitted activation curve with a large enough effect in the signal ratio in the repeat runs, with a control signal flat, not every such curve was filed as active; inconclusive means weak or mixed curves; the % refers to the signal ratio; further: potency means the concentration at half of the fitted maximal effect); conditions: HeLa HSE-bla reporter, beta-lactamase ratio, 5 h
Outline: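 Reporter gene assay: HeLa cells stably bearing an HSE-bla construct, compound treatment 5 h at 37 C, LiveBLAzer substrate 2.5 h at RT, fluorescence intensity.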

[13] = target: Bile acid receptor (Homo sapiens) (UniProt Q96RI1); assay: qHTS assay to identify small molecule antagonists of the farnesoid-X-receptor (FXR) signaling pathway (AID 743217; active means well fitted inhibition curve with a large enough effect in the signal ratio in the repeat runs, not every such curve was filed as active; inconclusive means weak or mixed curves, or effect the other way; inactive means no such curve, though single readings can be large or run the other way; the % refers to the signal ratio; further: potency means the concentration at half of the fitted maximal effect); conditions: HEK293T FXR-UAS-bla, beta-lactamase ratio, CDCA-stimulated, 16 h; activity change, negative = inhibition: at 62.6 µM (top of the series)
Outline: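 GeneBLAzer FXR-UAS-bla HEK 293T, CDCA-stimulated (50 uM final). Compound treatment 16 h, 37 °C. Detection: beta-lactamase cleavage of B/G FRET substrate, fluorescence.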

[14] = target: Vitamin D3 receptor (Homo sapiens) (UniProt P11473); assay: qHTS assay to identify small molecule agonists of the vitamin D receptor (VDR) signaling pathway (AID 743222); conditions: HEK293T VDR-UAS-bla, beta-lactamase FRET ratio, 16 h; further: potency means the concentration at half of the fitted maximal effect
Outline: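 In VDR-bla cells, compound-induced beta-lactamase expression is quantified by FRET substrate fluorescence. Treatment lasts 16 h at 37C; substrate develops 2 h at room temperature.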

[15] = target: Nuclear receptor ROR-gamma (Homo sapiens) (UniProt P51449); assay: qHTS assay to identify small molecule antagonists of the retinoid-related orphan receptor gamma (ROR-gamma) signaling pathway (AID 1159521; active means well fitted curve in the direction sought with a large enough effect in the repeat runs; inconclusive means weak or mixed curves; inactive means no such curve, though single readings can be large; an effect the other way counts as inactive or inconclusive; further: potency means the concentration at half of the fitted maximal effect; nearly all actives have a fitted effect of over 50% in size); conditions: Tet-on RORgamma CHO cells, RORE-luciferase, 16 h
[16] = target: Retinoic acid receptor RXR-alpha (Homo sapiens) (UniProt P19793); assay: qHTS assay to identify small molecule agonists of the RXR signaling pathway (AID 1159527); conditions: HEK293T RXRa-UAS-bla, beta-lactamase ratio, 16 h; further: potency means the concentration at half of the fitted maximal effect; nearly all actives have a fitted effect of over 35% in size
Outline: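 Agonist-mode beta-lactamase reporter assay: HEK 293T RXR-alpha-UAS-bla cells treated 16 hr at 37 C with compounds, 9-cis retinoic acid as positive control. LiveBLAzer FRET substrate, 405 nm excitation, 460/530 nm emission.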

COc1ccc([N+](=O)[O-])cc1[N+](=O)[O-]
inconclusive: Potency [1] 35.6 µM

O=[N+]([O-])c1cccc([N+](=O)[O-])c1
inconclusive: Potency [2] 83 µM | Potency [1] 58.8 µM

CC(C)OP(OC(C)C)OC(C)C
inconclusive: Potency [3] 49 µM | activity change, negative = inhibition [4] 9.86% | Potency [5] 61.1 µM

Cc1ccc([N+](=O)[O-])c([N+](=O)[O-])c1
inconclusive: Potency [1] 64.6 µM

CCOP(=S)(Cl)OCC
inconclusive: activation [6] 5.38% | Potency [7] 43 µM | Potency [8] 67.6 µM | Potency [9] 54.2 µM | Potency [10] 67.6 µM | Potency [11] 60.3 µM | Potency [12] 17.1 µM | Potency [13] 43 µM | Potency [14] 54.2 µM | Potency [15] 26.9 µM | Potency [3] 30.5 µM | Potency [16] 54.2 µM

Cc1c([N+](=O)[O-])cccc1[N+](=O)[O-]
inconclusive: Potency [2] 55.5 µM and 28.3 µM
